Assay results from PubChem BioAssay AID1259354 (Paczesny and Yang Labs, IUPUI and University of Michigan, 2018).
“And” between values parts separate entries of the source, which are not always exact repeats. Equal entries are not always repeated. About 1,800 (2.3%) of roughly 78,000 compounds were called active. Inconclusive results, whose numbers are uncertain, are shown with a selection of clear calls. Rule as the data show it: active = inhibition above about 30%; inconclusive = mostly about 10% to 28%; inactive = weaker than that.

Amino acid sequences for entries named in this document (tags omitted). A change or cut given only in a name is not applied to a line headed by its entry.
UniProt Q01638: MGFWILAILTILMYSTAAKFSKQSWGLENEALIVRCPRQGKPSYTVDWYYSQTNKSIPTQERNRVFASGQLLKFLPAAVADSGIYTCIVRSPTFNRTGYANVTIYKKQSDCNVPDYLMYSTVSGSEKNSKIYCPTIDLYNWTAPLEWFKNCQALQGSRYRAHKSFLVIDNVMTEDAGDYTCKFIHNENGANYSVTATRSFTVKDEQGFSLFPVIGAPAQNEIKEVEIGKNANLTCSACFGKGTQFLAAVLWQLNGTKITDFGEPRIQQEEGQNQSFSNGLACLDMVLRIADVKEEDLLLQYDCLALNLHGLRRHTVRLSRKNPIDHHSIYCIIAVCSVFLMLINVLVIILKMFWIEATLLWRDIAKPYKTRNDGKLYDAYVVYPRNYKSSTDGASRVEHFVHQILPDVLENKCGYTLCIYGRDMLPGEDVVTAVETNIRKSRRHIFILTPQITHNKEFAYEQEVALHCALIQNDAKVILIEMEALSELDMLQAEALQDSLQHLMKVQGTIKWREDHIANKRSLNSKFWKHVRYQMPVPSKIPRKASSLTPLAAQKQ

Each compound was assayed against Interleukin-1 receptor-like 1 (Homo sapiens) (UniProt Q01638) (assay: inhibitors of human ST2 (IL1RL1) binding to IL-33, primary screen, biochemical, AlphaLISA (AID 1259354)). Settings: AlphaLISA ST2-Fc/biotin-IL-33 interaction, 1 h; at 17 µM, hits give high values.

Row | SMILES | inhibition
1 | FC(F)(F)CCc1ccnc(N2C[C@H]3CNC[C@H]3C2)n1 | inconclusive: 10%
2 | Clc1ccc(CN2CCN(c3ccccc3)CC2)c(Cl)c1 | active: 91%
3 | CC(C)(C)c1ccc(-c2cn(C[C@H]3CC4CCN3C[C@@H]4C(=O)NCc3ccc4c(c3)OCO4)nn2)cc1 (some centres undefined) | inconclusive: 18%
4 | CCCSc1ncc(CN2C[C@H]3C[C@H](O)[C@@H](O)C[C@H]3C2)cn1 | inconclusive: 10%
5 | O=[N+]([O-])c1ccc(N2CCN(Cc3cc(F)ccc3F)CC2)cc1 | inconclusive: 14%
6 | C#C[C@H]1CN2CC[C@H]1C[C@@H]2CNC(=S)NC1CC1 | inactive
7 | COC[C@H]1OC(=O)c2coc3c2[C@@]1(C)C1=C(C3=O)C2CCC(=O)[C@@]2(C)C[C@H]1OC(C)=O (some centres undefined) | inconclusive: 16%
8 | C=C[C@H]1CN2CC[C@H]1C[C@@H]2CNC(=O)c1ccc(C(F)(F)F)cc1 | inconclusive: 12%
9 | Cc1ccc(C)c(CN2CCN(c3ccccc3C)CC2)c1 | inconclusive: 14%
10 | CN(C)C(=O)[C@H]1CN2CCC1C[C@@H]2Cn1cc(C2(O)CCCCC2)nn1 (some centres undefined) | inconclusive: 10%
11 | COCCC(=O)N1C[C@@H]2C[C@H](C1)c1ccc(NS(=O)(=O)c3ccccc3)c(=O)n1C2 | inactive
12 | O=C(CCCN1CCC2(CC1)C(=O)NCN2c1ccccc1)c1ccc(F)cc1 | inconclusive: 15%
13 | O=C(c1ccco1)N1C[C@@H]2C[C@H](C1)c1c(-c3cccnc3)ccc(=O)n1C2 | inconclusive: 29%
14 | CC[C@H]1CN2CC[C@H]1C[C@@H]2CNC(=S)NCCN1CCOCC1 | inactive
15 | COc1cccc([C@@H]2CN(c3cc(OC)ncn3)[C@@H]3C4CCN(CC4)[C@@H]32)c1 | inconclusive: 13%
16 | C=C[C@H]1CN2CC[C@H]1C[C@@H]2CNC(=S)Nc1ccc(C)cc1Br | inconclusive: 12%
17 | O=C(NC[C@H]1C[C@@H]2CCN1C[C@@H]2CN1CCN(c2ccccn2)CC1)Nc1ccsc1 | inconclusive: 20%
18 | COCC(=O)NC[C@H]1C[C@@H]2CCN1C[C@@H]2CN1CCN(c2ccc(F)cc2)CC1 | inconclusive: 11%
19 | O=[N+]([O-])c1cccc(CN2CC=C(c3ccc(F)cc3)CC2)c1 | active: 35%
20 | NCC1(CC(=O)O)CCCCC1 | inconclusive: 19%
21 | CC1CCN(C[C@H]2CN3CC[C@H]2C[C@@H]3CNC(=O)c2ccco2)CC1 | inconclusive: 19%

Row | SMILES | inhibition
22 | O=C(NC[C@H]1C[C@@H]2CCN1C[C@@H]2CN1CCN(c2ccc(F)cc2)CC1)Nc1ccccc1 | inconclusive: 12%
23 | COc1ccc(CN2CCN(C)CC2)c(OC)c1C | inactive
24 | CCN1CCN(c2ccc3nsnc3c2[N+](=O)[O-])CC1 | inactive
25 | CC(C)NC(=O)CN1CCCN(Cc2ccccc2)S1(=O)=O | inconclusive: 13%
26 | COc1ccccc1CNC(=O)[C@H]1CN2CCC1C[C@@H]2Cn1cc(-c2cccc(N)c2)nn1 (some centres undefined) | inconclusive: 17%
27 | O=C(c1cnccn1)N1C[C@@H]2C[C@H](C1)c1ccc(-c3cccnc3)c(=O)n1C2 | inconclusive: 10%
28 | O=C(Nc1ccc2c(c1)OCO2)c1cccn(Cc2cccc(C(F)(F)F)c2)c1=O | inactive
29 | O=[N+]([O-])c1ccc2nc(N3CCNCC3)sc2c1 | inconclusive: 21%
30 | CC(N)C(=O)c1ccco1 (centres undefined) | inconclusive: 18%
31 | C#C[C@H]1CN2CC[C@H]1C[C@@H]2CNC(=S)Nc1ccc(OC)cc1 | inconclusive: 12%
32 | COCCNC(=S)NC[C@H]1C[C@@H]2CCN1C[C@@H]2CN1CCN(c2ccc(F)cc2)CC1 | inconclusive: 11%
33 | COCCC(=O)N1C[C@@H]2C[C@H](C1)c1c(-c3ccc4ccccc4c3)ccc(=O)n1C2 | inconclusive: 14%
34 | O=C(NC1CCCCC1)N1C[C@@H]2C[C@H](C1)c1c(-c3cncnc3)ccc(=O)n1C2 | inconclusive: 26%
35 | CCOc1ccccc1N1CCN(Cc2ccc(C)cc2C)CC1 | inconclusive: 17%
36 | CC(C)NC(=O)OC[C@H]1C[C@@H]2CCN1C[C@@H]2c1cc(C2CCCC2)nc(-c2ccncc2)n1 | inconclusive: 10%
37 | S=C(NC[C@H]1C[C@@H]2CCN1C[C@@H]2CN1CCCCC1)Nc1ccc(-n2cccn2)cc1 | inactive
38 | COc1ccc(-c2cc([C@H]3CN4CC[C@H]3C[C@@H]4CNC(=S)Nc3cccc(C#N)c3)n(C)n2)cc1 | inactive
39 | Cc1nc(-c2cccs2)cc([C@H]2CN3CC[C@H]2C[C@@H]3CNC(=O)c2ccc3c(c2)OCO3)n1 | inconclusive: 18%
40 | COc1ccc(CN2C[C@@H]3C[C@H](C2)c2ccc(-c4ccccc4C)c(=O)n2C3)cc1 | inconclusive: 18%
41 | Cc1cccc(CN2CCN(c3ccc([N+](=O)[O-])cc3)CC2)c1 | active: 42%
42 | CC/C(=C\c1cc(Br)c(O)c(OC)c1)[N+](=O)[O-] | inconclusive: 23%

Row | SMILES | inhibition
43 | O=C(NC1CCCCC1)N1C[C@@H]2C[C@H](C1)c1ccc(-c3cc4ccccc4s3)c(=O)n1C2 | inactive
44 | CC[C@@H](C)[C@H]1C(=O)O[C@H](C(C)C)C(=O)N(C)[C@@H](C(C)C)C(=O)O[C@H](C(C)C)C(=O)N(C)[C@@H](C(C)C)C(=O)O[C@H](C(C)C)C(=O)N1C | inconclusive: 11%
45 | CNCc1cn(C[C@H]2C[C@@H]3CCN2C[C@@H]3C(=O)NC2CCCCC2)nn1 | inconclusive: 25%
46 | CCOC(=O)Cc1csc(NC(=O)c2cccn(Cc3ccccc3Cl)c2=O)n1 | inactive
47 | Cc1cccc(C2N(c3ccccn3)C(=O)C3CCCN32)c1 (centres undefined) | inconclusive: 20%
48 | CCCN(CCC)C(=O)Cc1c(-c2ccc(Cl)cc2)nc2c(Cl)cc(Cl)cn12 | inconclusive: 10%
49 | COc1ccccc1-c1cc([C@H]2CN3CC[C@H]2C[C@@H]3COC(=O)Nc2ccc(C(C)(C)C)cc2)nc(C)n1 | inconclusive: 19%
50 | C/C=C(\C)C(=O)O[C@@H]1[C@@H](C)[C@]2(O)C3C=C(C)C(=O)[C@@]3(O)CC(CO)=C[C@H]2C2C(C)(C)[C@@]21OC(=O)C(C)CC (some centres undefined) | inconclusive: 12%
51 | Fc1ccc(CN2CCN(c3ccccc3)CC2)c(F)c1 | inactive
52 | C=C[C@H]1CN2CC[C@H]1C[C@@H]2CNC(=S)Nc1ccc(C#N)cc1 | inactive
53 | C#C[C@H]1CN2CC[C@H]1C[C@@H]2CNC(=S)NCC | inconclusive: 10%
54 | O=C(c1ccc(=O)[nH]c1)N1[C@H]2CCNC[C@@H]1CC2 | inactive
55 | Cc1ccccc1CN1CCN(CCO)CC1 | inconclusive: 19%
56 | COCCN1CCCC2(CCNC2)C1 (centres undefined) | inconclusive: 10%
57 | COCCC(=O)N1C[C@@H]2C[C@H](C1)c1ccc(NC(=O)CN(C)C)c(=O)n1C2 | inconclusive: 15%
58 | COc1ccc(-c2cc([C@H]3CN4CC[C@H]3C[C@@H]4CNC(=S)Nc3cccc4ccccc34)n(C)n2)cc1OC | inconclusive: 11%
59 | O=C(Nc1ccccc1)N1C[C@@H]2C[C@H](C1)c1ccc(-c3cc4ccccc4s3)c(=O)n1C2 | inconclusive: 18%
60 | CN1CCN(C[C@H]2CN3CC[C@H]2C[C@@H]3CNS(=O)(=O)c2ccc(Cl)cc2)CC1 | inconclusive: 11%
61 | CCCNC(=O)CN1CCCN(Cc2cccc(Cl)c2)S1(=O)=O | inconclusive: 13%
62 | NCCc1c[nH]c2ccc(OCc3ccccc3)cc12 | inconclusive: 24% and inconclusive: 16%
63 | CC(C)NC(=O)N1C[C@@H]2C[C@H](C1)c1ccc(-c3cccc(C(F)(F)F)c3)c(=O)n1C2 | inconclusive: 11%

Part of the list above, tab-delimited:
Row	SMILES	inhibition
49	COc1ccccc1-c1cc([C@H]2CN3CC[C@H]2C[C@@H]3COC(=O)Nc2ccc(C(C)(C)C)cc2)nc(C)n1	inconclusive: 19%
50	C/C=C(\C)C(=O)O[C@@H]1[C@@H](C)[C@]2(O)C3C=C(C)C(=O)[C@@]3(O)CC(CO)=C[C@H]2C2C(C)(C)[C@@]21OC(=O)C(C)CC (some centres undefined)	inconclusive: 12%
51	Fc1ccc(CN2CCN(c3ccccc3)CC2)c(F)c1	inactive
52	C=C[C@H]1CN2CC[C@H]1C[C@@H]2CNC(=S)Nc1ccc(C#N)cc1	inactive
53	C#C[C@H]1CN2CC[C@H]1C[C@@H]2CNC(=S)NCC	inconclusive: 10%
54	O=C(c1ccc(=O)[nH]c1)N1[C@H]2CCNC[C@@H]1CC2	inactive
55	Cc1ccccc1CN1CCN(CCO)CC1	inconclusive: 19%

Further entries.

Row | SMILES | inhibition
64 | CC(=O)c1ccc(N2CCN(Cc3cccc(Br)c3)CC2)cc1 | inactive
65 | C#C[C@H]1CN2CC[C@H]1C[C@@H]2CNS(=O)(=O)Cc1ccccc1 | inconclusive: 14%
66 | Cc1ccc(C(=O)NC[C@H]2C[C@@H]3CCN2C[C@@H]3c2cc(-c3cccs3)nn2C)cc1 | inactive
67 | NS(=O)(=O)c1ccc(NC(=O)c2cccn(Cc3ccc(C(F)(F)F)cc3)c2=O)cc1 | inactive
68 | CCn1nc(C)c(NC(=O)CNC(C)Cc2cnccn2)c1C (centres undefined) | inconclusive: 11%
69 | C[N+](C)(C)CCOC(=O)CBr | inconclusive: 18%
70 | O=C(NCc1ccc2c(c1)OCO2)[C@H]1CN2CCC1C[C@@H]2Cn1cc(-c2cccc(O)c2)nn1 (some centres undefined) | inconclusive: 23%
71 | Cc1sc2ccccc2c1CC1=NCCN1 | inconclusive: 13%
72 | COc1ccccc1CNC(=O)[C@H]1CN2CCC1C[C@@H]2Cn1cc(CN(C)C)nn1 (some centres undefined) | inactive
73 | COc1ccccc1N1CCN(C[C@H]2CN3CC[C@H]2C[C@@H]3CNC(=O)Nc2cccc(F)c2)CC1 | inactive
74 | O=C(NC[C@H]1C[C@@H]2CCN1C[C@@H]2CN1CCN(c2ccccc2)CC1)Nc1ccccc1 | inconclusive: 19%
75 | CCc1ccc(CN2CCN(c3ccccc3OC)CC2)cc1 | active: 97%
76 | CCNC(=O)c1ccc(-c2cccc3c2CCNC3)s1 | inconclusive: 16%
77 | COc1cc(CN2CCN(c3ccc(F)cc3)CC2)cc(Br)c1O | inconclusive: 15%
78 | O=C1OC(c2ccccc2)=N/C1=C\N1CC2CC(C1)c1cccc(=O)n1C2 (centres undefined) | inactive
79 | O=C(c1ccc(F)cc1)N1C[C@@H]2C[C@H](C1)c1c(/C=C/c3ccc(Cl)cc3)ccc(=O)n1C2 | inconclusive: 17%
80 | O=C1CSC(c2ccc(OCc3ccccc3)cc2)c2c(n(C3CCCC3)[nH]c2=O)N1 (centres undefined) | inconclusive: 15%
81 | C=C[C@H]1CN2CC[C@H]1C[C@@H]2CNC(=S)NCCOC | inactive
82 | O=C(COc1ccccc1)N1CCN(Cc2ccc3c(c2)OCO3)CC1 | inactive
83 | Cn1nc(C2CCCC2)cc1[C@H]1CN2CC[C@H]1C[C@@H]2CNC(=S)Nc1cccc(C#N)c1 | inconclusive: 12%
84 | CN1CCN(Cc2ccccc2Br)CC1 | inconclusive: 18%
